Data taken from the supplement of paper PMC10849652.
This is one part of the list.

Chains of the proteins cited; added tags and fusions are not shown. Lines headed by an entry give the natural chain unless they say otherwise; changes in a name come on top.
UniProt Q9NUY8: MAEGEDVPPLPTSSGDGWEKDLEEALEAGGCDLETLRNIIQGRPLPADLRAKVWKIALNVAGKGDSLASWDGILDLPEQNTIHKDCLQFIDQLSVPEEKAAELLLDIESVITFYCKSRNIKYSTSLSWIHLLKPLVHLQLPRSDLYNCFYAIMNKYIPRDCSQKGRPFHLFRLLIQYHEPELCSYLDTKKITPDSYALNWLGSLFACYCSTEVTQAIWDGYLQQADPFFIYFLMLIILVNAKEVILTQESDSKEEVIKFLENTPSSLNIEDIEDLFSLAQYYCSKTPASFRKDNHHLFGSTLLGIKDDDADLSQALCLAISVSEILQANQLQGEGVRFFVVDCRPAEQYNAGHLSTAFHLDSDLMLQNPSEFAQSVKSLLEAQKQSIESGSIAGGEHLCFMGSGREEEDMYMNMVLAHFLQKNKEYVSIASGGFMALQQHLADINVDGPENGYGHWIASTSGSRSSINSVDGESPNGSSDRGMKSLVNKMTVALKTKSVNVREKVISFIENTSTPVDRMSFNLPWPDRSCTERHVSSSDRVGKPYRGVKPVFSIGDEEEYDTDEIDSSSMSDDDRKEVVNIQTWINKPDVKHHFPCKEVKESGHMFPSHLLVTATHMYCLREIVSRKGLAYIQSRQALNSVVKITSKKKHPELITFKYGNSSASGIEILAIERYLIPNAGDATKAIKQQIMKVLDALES
UniProt O14776: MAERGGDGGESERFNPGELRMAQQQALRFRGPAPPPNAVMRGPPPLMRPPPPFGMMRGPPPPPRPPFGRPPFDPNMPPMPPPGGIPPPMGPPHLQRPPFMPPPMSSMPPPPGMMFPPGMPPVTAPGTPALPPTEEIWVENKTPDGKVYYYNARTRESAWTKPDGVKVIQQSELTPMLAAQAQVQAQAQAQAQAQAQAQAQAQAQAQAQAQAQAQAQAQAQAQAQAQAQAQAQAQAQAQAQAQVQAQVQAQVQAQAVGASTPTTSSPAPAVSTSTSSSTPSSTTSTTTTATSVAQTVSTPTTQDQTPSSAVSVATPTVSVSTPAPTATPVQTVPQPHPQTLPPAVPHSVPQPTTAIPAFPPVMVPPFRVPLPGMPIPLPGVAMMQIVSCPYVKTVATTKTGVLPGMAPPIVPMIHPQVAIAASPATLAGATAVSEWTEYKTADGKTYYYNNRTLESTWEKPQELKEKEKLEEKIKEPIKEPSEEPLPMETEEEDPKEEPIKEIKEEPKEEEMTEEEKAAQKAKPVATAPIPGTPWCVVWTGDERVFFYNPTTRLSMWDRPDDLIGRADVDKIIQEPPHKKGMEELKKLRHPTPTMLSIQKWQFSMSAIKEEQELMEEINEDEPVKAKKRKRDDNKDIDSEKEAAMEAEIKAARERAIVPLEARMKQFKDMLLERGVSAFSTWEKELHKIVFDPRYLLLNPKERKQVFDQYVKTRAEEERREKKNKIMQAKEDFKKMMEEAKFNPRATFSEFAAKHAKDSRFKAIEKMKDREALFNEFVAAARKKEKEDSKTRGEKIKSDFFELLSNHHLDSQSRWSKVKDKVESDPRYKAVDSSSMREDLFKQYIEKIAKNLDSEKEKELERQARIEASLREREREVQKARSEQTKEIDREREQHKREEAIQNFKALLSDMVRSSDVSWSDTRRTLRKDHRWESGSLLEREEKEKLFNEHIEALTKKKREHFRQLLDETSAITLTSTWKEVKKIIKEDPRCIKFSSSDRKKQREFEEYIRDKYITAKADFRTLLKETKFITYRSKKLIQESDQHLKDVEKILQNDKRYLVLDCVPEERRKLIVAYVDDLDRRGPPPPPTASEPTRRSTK
UniProt Q01664: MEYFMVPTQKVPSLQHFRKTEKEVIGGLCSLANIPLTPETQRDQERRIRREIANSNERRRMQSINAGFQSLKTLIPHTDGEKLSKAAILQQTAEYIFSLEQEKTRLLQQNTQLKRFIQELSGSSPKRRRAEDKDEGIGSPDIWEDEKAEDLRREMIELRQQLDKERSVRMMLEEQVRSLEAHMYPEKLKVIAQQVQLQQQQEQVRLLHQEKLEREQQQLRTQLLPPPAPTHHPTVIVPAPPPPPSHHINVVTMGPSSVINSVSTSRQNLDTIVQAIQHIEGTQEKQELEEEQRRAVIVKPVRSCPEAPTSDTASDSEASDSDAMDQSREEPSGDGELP
UniProt Q9BU02: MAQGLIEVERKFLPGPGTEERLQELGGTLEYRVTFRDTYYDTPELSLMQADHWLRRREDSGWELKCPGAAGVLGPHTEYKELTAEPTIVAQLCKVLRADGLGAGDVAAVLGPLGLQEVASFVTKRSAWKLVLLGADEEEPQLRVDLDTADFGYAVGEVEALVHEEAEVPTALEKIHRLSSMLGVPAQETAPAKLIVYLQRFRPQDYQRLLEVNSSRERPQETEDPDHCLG
UniProt Q15582: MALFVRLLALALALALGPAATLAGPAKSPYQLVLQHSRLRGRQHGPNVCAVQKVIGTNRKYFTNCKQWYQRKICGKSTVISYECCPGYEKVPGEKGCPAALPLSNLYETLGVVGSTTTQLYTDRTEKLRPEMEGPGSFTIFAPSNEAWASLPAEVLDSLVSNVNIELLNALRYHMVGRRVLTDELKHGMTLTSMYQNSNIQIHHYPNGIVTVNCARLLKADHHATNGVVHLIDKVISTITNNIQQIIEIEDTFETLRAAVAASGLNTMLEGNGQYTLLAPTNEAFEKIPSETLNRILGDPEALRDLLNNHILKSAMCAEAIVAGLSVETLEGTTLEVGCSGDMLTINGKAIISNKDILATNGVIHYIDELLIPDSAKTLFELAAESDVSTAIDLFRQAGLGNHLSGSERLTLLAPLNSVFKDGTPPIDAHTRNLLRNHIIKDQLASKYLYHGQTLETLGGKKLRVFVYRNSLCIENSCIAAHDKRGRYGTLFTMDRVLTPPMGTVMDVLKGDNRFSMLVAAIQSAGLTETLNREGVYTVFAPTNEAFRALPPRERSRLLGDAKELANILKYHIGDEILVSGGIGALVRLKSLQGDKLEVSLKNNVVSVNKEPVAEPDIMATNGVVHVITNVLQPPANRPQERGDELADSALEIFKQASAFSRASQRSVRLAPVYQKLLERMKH
UniProt Q13428: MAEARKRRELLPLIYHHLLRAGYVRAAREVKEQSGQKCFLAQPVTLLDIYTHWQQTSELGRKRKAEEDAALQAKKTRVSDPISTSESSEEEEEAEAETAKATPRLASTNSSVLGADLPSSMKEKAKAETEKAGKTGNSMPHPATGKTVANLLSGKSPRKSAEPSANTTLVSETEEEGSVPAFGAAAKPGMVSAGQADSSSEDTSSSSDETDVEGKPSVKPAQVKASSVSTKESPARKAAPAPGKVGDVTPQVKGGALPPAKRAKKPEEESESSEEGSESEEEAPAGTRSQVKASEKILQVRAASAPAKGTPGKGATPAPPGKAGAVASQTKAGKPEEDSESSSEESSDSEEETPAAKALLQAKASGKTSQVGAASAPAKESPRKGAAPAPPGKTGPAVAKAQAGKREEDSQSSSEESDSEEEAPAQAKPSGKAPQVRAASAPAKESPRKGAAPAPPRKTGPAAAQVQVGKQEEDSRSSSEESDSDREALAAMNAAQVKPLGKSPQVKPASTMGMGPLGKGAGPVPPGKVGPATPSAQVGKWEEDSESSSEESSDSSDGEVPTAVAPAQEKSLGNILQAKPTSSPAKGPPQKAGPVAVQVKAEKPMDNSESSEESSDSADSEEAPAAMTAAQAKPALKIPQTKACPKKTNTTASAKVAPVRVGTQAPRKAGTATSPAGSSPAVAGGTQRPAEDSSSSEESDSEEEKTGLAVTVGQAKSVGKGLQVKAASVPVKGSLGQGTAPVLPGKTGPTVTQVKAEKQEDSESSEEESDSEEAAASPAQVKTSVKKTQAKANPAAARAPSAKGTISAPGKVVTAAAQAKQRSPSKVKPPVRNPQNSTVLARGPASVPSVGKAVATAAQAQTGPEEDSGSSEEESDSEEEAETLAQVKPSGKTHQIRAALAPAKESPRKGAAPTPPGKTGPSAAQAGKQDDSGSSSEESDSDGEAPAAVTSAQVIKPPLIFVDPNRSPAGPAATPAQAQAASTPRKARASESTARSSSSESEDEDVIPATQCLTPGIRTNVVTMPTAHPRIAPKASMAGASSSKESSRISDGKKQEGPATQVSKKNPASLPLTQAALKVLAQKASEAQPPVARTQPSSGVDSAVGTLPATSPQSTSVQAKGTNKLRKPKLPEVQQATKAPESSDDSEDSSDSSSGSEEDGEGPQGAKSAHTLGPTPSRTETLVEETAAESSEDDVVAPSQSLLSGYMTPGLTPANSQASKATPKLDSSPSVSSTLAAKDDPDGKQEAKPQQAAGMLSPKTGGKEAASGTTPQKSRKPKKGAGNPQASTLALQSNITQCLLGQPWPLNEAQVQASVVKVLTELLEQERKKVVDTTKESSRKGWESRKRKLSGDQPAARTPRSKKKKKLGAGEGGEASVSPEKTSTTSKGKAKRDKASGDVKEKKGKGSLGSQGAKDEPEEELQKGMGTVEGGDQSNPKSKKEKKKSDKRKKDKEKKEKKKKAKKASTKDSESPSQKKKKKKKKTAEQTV

What was measured:
Assay in all cases: log2 fold change, soluble protein after heating vs DMSO (PISA); higher = thermal stabilisation; K562 cells, 10 uM, 30 min; active = over 0.2 and 3.5 SD of the protein, either way, in both replicates (recomputed)
[1] = compound: CC[C@@H]1C(=O)N(C)c2cnc(Nc3ccc(C(=O)NC4CCN(C)CC4)cc3OC)nc2N1C1CCCC1
Method in brief: (§1)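 Soluble protein was quantified by TMTpro 16plex LC-MS/MS after channel sums were equalised. It was obtained as the supernatant after 21,000xg for 90 min from pooled aliquots of K562 cells (2×10^6 cells/mL, 10 μM compound, 30 min) heated for 3 min across 48°C-58°C and extracted in PBS with 0.5% NP-40 at 4°C. Thermal stability values are relative to control samples and come from duplicates. They are given as log2 fold changes.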

volasertib = compound: CC[C@@H]1C(=O)N(C)c2cnc(Nc3ccc(C(=O)N[C@H]4CC[C@H](N5CCN(CC6CC6)CC5)CC4)cc3OC)nc2N1C(C)C [volasertib]
Method in brief: as §1

[2] = compound: CC[C@H](C)N1C=C(C2=C(C=C(C=C21)C3=CN=C(C=C3)N4CCNCC4)C(=O)NCC5=C(C=C(NC5=O)C)C)C
Method in brief: as §1

epoxomicin = compound: CC[C@H](C)[C@@H](C(=O)N[C@@H]([C@@H](C)O)C(=O)N[C@@H](CC(C)C)C(=O)[C@]1(CO1)C)NC(=O)[C@H]([C@@H](C)CC)N(C)C(=O)C [epoxomicin]
Method in brief: as §1

[3] = compound: CCn1cc(-c2ccnc3[nH]c(-c4cccc(CN(C)C)c4)cc23)c(-c2ccc(NC(=O)N(C)C)cc2)n1
Method in brief: as §1

[4] = compound: CN(C)CC(=O)Nc1ccc2[nH]c(=O)c3ccccc3c2c1
Method in brief: as §1

[5] = compound: CN1C2=C(C3=C1C(=O)N(N=C3)CC4=CC(=CC=C4)N)SC(=C2)S(=O)C
Method in brief: as §1

[6] = compound: CN1CCC(CNc2ccc3ncc(-c4cccc(OC(F)(F)F)c4)n3n2)CC1
Method in brief: as §1

saracatinib = compound: CN1CCN(CCOc2cc(OC3CCOCC3)c3c(Nc4c(Cl)ccc5c4OCO5)ncnc3c2)CC1 [saracatinib]
Method in brief: as §1

sotrastaurin = compound: CN1CCN(c2nc(C3=C(c4c[nH]c5ccccc45)C(=O)NC3=O)c3ccccc3n2)CC1 [sotrastaurin]
Method in brief: as §1

Tubastatin A = compound: CN1CCc2c(c3ccccc3n2Cc2ccc(C(=O)NO)cc2)C1 [Tubastatin A]
Method in brief: as §1

[7] = compound: CNC(=O)C1=CC=CC=C1NC2=NC(=NC=C2Cl)NC3=C(C=C(C=C3)N4CCOCC4)OC
Method in brief: as §1

defactinib = compound: CNC(=O)c1ccc(Nc2ncc(C(F)(F)F)c(NCc3nccnc3N(C)S(C)(=O)=O)n2)cc1 [defactinib]
Method in brief: as §1

rucaparib = compound: CNCc1ccc(-c2[nH]c3cc(F)cc4c3c2CCNC4=O)cc1 [rucaparib]
Method in brief: as §1

[8] = compound: CNc1nc(-c2ccc3c(N)n[nH]c3c2)cc(N2C[C@@H](C(=O)NC3CCCCC3)CC[C@H]2C)n1
Method in brief: as §1

encorafenib = compound: COC(=O)N[C@@H](C)CNc1nccc(-c2cn(C(C)C)nc2-c2cc(Cl)cc(NS(C)(=O)=O)c2F)n1 [encorafenib]
Method in brief: as §1

[9] = compound: COC(=O)[C@H](CCSC)NC(=O)C1=C(C=C(C=C1)NC[C@H](CS)N)C2=CC=CC=C2
Method in brief: as §1

alvocidib = compound: CN1CC[C@H](c2c(O)cc(O)c3c(=O)cc(-c4ccccc4Cl)oc23)[C@H](O)C1 [alvocidib]
Method in brief: as §1

rosiglitazone = compound: CN(CCOC1=CC=C(C=C1)C[C@H]2C(=O)NC(=O)S2)C3=CC=CC=N3 (racemic) [rosiglitazone]
Method in brief: as §1

[10] = compound: CCn1c(C(=O)N(C2CC2)C2CC2)cc2c3c(ncn3C)c(Nc3cc(C)n(C)n3)nc21
Method in brief: as §1

Target | log2 fold change [1] | log2 fold change (volasertib) | log2 fold change [2] | log2 fold change (epoxomicin) | log2 fold change [3] | log2 fold change [4] | log2 fold change [5] | log2 fold change [6] | log2 fold change (saracatinib) | log2 fold change (sotrastaurin) | log2 fold change (Tubastatin A) | log2 fold change [7] | log2 fold change (defactinib) | log2 fold change (rucaparib) | log2 fold change [8] | log2 fold change (encorafenib) | log2 fold change [9] | log2 fold change (alvocidib) | log2 fold change (rosiglitazone) | log2 fold change [10]
TBC1D23 (UniProt Q9NUY8) | inactive: -0.228 | inactive: -0.261 | inactive: 0.008 | inactive: 0.049 | inactive: -0.069 | inactive: 0.025 | inactive: 0.043 | active: -0.651 | inactive: -0.023 | inactive: -0.073 | inactive: 0.043 | inactive: -0.027 | inactive: -0.109 | inactive: -0.038 | inactive: -0.074 | inactive: 0.079 | inactive: -0.047 |  |  | 
TERF2IP (UniProt Q9NYB0) | inactive: -0.038 | inactive: -0.205 | inactive: 0.001 | inactive: 0.081 | inactive: 0.01 | inactive: 0.045 | inactive: 0.026 | inactive: -0.039 | inactive: 0.038 | inactive: -0.065 | inactive: 0.128 | inactive: 0.008 | inactive: -0.195 | inactive: -0.052 | inactive: -0.016 | inactive: -0.011 | inactive: -0.007 |  |  | 
TBRG4 (UniProt Q969Z0) | inactive: -0.361 | inactive: -0.583 | inactive: -0.003 | inactive: 0.12 | inactive: 0.009 | inactive: 0.111 | inactive: 0.047 | active: -1.19 | inactive: -0.093 | inactive: -0.431 | inactive: 0.044 | inactive: -0.177 | inactive: -0.25 | inactive: 0.008 | inactive: -0.144 | inactive: 0.071 | inactive: -0.062 |  |  | 
TCAF2 (UniProt A6NFQ2) | inactive: 0.275 |  | inactive: -0.287 | inactive: -0.215 |  |  |  |  |  |  |  |  |  | inactive: 0.588 |  | inactive: 0.263 |  | inactive: -0.047 |  | 
THYN1 (UniProt Q9P016) | inactive: 0.059 | inactive: 0.09 | inactive: 0.048 | inactive: 0.016 | inactive: -0.04 | inactive: -0.004 | inactive: -0.09 | inactive: 0.09 | inactive: -0.062 | inactive: -0.022 | inactive: -0.006 | inactive: 0.079 | inactive: -0.002 | inactive: 0.029 | inactive: 0.072 | inactive: 0 | inactive: -0.029 |  |  | 
TCERG1 (UniProt O14776) | inactive: -0.145 | active: -0.445 | inactive: 0.133 | inactive: 0.116 | inactive: -0.032 | inactive: 0.135 | inactive: -0.038 | inactive: -0.136 | inactive: -0.051 | inactive: -0.086 | inactive: 0.11 | inactive: -0.011 | inactive: -0.288 | inactive: -0.003 | inactive: 0.08 | inactive: 0.063 | inactive: -0.105 |  |  | 
TBCD (UniProt Q9BTW9) | inactive: -0.061 | active: -0.315 | inactive: 0.074 | inactive: -0.012 | inactive: -0.002 | inactive: 0.033 | inactive: -0.044 | inactive: -0.094 | inactive: 0.003 | inactive: -0.056 | inactive: 0.05 | inactive: -0.016 | inactive: -0.056 | inactive: 0 | inactive: -0.031 | inactive: 0.018 | inactive: -0.007 |  |  | 
TIPRL (UniProt O75663) | inactive: -0.061 | active: -0.23 | inactive: 0.072 | inactive: 0.025 | inactive: -0.057 | inactive: 0.032 | inactive: 0.021 | inactive: -0.214 | inactive: -0.028 | inactive: -0.056 | inactive: 0 | inactive: 0.009 | inactive: -0.049 | inactive: 0.013 | inactive: -0.001 | inactive: 0.035 | inactive: -0.014 |  |  | 
TFAP4 (UniProt Q01664) | inactive: 0.018 | inactive: -0.21 | inactive: 0.119 |  | inactive: -0.072 | inactive: 0.03 |  | inactive: -0.072 |  |  | inactive: 0.038 |  | inactive: -0.048 | inactive: 0.18 |  | inactive: 0.107 | inactive: -0.057 | inactive: 0.087 | inactive: 0.004 | 
TET2 (UniProt Q6N021) | inactive: -0.474 |  | inactive: -0.173 |  |  |  |  |  |  |  | inactive: 0.307 |  |  | inactive: -0.051 |  | inactive: -0.015 |  |  |  | 
TFB2M (UniProt Q9H5Q4) | inactive: -0.096 | active: -0.326 | inactive: 0.049 | inactive: 0.071 | inactive: -0.002 | inactive: 0.031 | inactive: -0.049 | inactive: -0.179 | inactive: -0.029 | inactive: -0.031 | inactive: -0.012 | inactive: 0.02 | inactive: -0.06 | inactive: -0.013 | inactive: -0.054 | inactive: -0.002 | inactive: -0.001 |  |  | 
TGFBR1 isoform 2 (UniProt P36897) | inactive: -0.041 | inactive: -0.179 | inactive: -0.022 | inactive: 0.033 | inactive: -0.023 | inactive: -0.028 | inactive: 0.021 | inactive: 0.076 | active: 0.371 | inactive: 0.026 | inactive: 0.023 | inactive: -0.045 | inactive: 0.039 | inactive: 0.096 | inactive: 0.041 | inactive: 0.041 | inactive: -0.055 |  |  | 
THTPA (UniProt Q9BU02) | inactive: -0.166 | inactive: -0.187 |  |  |  | inactive: -0.136 | inactive: -0.155 |  | inactive: 0.065 |  | inactive: 0.156 | inactive: 0.009 | inactive: -0.017 | inactive: -0.166 | inactive: -0.158 | inactive: 0.146 | inactive: 0.054 | inactive: -0.083 | inactive: -0.051 | inactive: -0.079
TGFBI (UniProt Q15582) | inactive: -0.089 | inactive: -0.211 | inactive: -0.044 | inactive: -0.33 | inactive: 0.068 | inactive: -0.128 | inactive: 0.171 | inactive: -0.142 | inactive: 0.017 | inactive: 0.171 | inactive: -0.005 | inactive: -0.014 | inactive: -0.037 | inactive: -0.06 | inactive: -0.113 | inactive: 0.006 | inactive: 0.098 |  |  | 
TCP11L1 (UniProt Q9NUJ3) | inactive: -0.134 | inactive: -0.378 | inactive: 0.076 |  |  |  | inactive: -0.14 |  | inactive: 0 |  |  | inactive: -0.131 |  | inactive: 0.103 | inactive: 0.046 | inactive: 0.115 |  |  |  | inactive: 0.049
TCOF1 isoform 6 (UniProt Q13428) | inactive: 0.04 |  | inactive: -0.132 |  |  | inactive: -0.219 |  |  |  | inactive: -0.094 | inactive: -0.103 | inactive: -0.149 | inactive: 0.027 | inactive: -0.022 |  | inactive: 0.162 | inactive: -0.053 |  |  | 
TFCP2 (UniProt Q12800) | inactive: 0.138 |  | inactive: 0.04 | inactive: -0.041 | inactive: 0.052 |  | inactive: 0.319 | inactive: -0.026 | inactive: -0.387 | inactive: 0.105 |  | inactive: -0.057 |  | inactive: 0.232 | inactive: 0.087 | inactive: 0.09 |  | inactive: -0.107 | inactive: -0.014 | inactive: -0.172
TBK1 (UniProt Q9UHD2) | inactive: -0.093 | inactive: -0.232 | inactive: 0.055 | inactive: 0.019 | inactive: 0.023 | inactive: -0.033 | inactive: 0.172 | inactive: -0.152 | inactive: -0.026 | inactive: -0.063 | inactive: -0.014 | active: 0.536 | inactive: 0.079 | inactive: 0.106 | inactive: -0.013 | inactive: 0.049 | inactive: 0.001 |  |  | 
TIMM10B (UniProt Q9Y5J6) | inactive: 0.033 | inactive: -0.011 | inactive: -0.064 | inactive: 0.274 | inactive: -0.033 | inactive: -0.12 | inactive: 0.063 | inactive: 0.131 | inactive: -0.046 | inactive: 0.074 | inactive: 0.109 | active: 0.484 | inactive: -0.074 | inactive: 0.017 | inactive: -0.106 | inactive: -0.022 | inactive: -0.117 |  |  | 
TJP2 isoform 7 (UniProt Q9UDY2) | inactive: -0.128 | inactive: -0.298 | inactive: -0.018 | inactive: 0.01 | inactive: -0.083 | inactive: 0.015 | inactive: -0.021 | inactive: -0.094 | inactive: -0.074 | inactive: -0.151 | inactive: 0.047 | inactive: -0.06 | inactive: -0.211 | inactive: 0.051 | inactive: 0.054 | inactive: 0.066 | inactive: -0.097 |  |  | 

An excerpt of these results, with tabs:
Target	log2 fold change [1]	log2 fold change (volasertib)	log2 fold change [2]	log2 fold change (epoxomicin)	log2 fold change [3]	log2 fold change [4]	log2 fold change [5]	log2 fold change [6]	log2 fold change (saracatinib)	log2 fold change (sotrastaurin)	log2 fold change (Tubastatin A)	log2 fold change [7]	log2 fold change (defactinib)	log2 fold change (rucaparib)	log2 fold change [8]	log2 fold change (encorafenib)	log2 fold change [9]	log2 fold change (alvocidib)	log2 fold change (rosiglitazone)	log2 fold change [10]
TBRG4 (UniProt Q969Z0)	inactive: -0.361	inactive: -0.583	inactive: -0.003	inactive: 0.12	inactive: 0.009	inactive: 0.111	inactive: 0.047	active: -1.19	inactive: -0.093	inactive: -0.431	inactive: 0.044	inactive: -0.177	inactive: -0.25	inactive: 0.008	inactive: -0.144	inactive: 0.071	inactive: -0.062			
THYN1 (UniProt Q9P016)	inactive: 0.059	inactive: 0.09	inactive: 0.048	inactive: 0.016	inactive: -0.04	inactive: -0.004	inactive: -0.09	inactive: 0.09	inactive: -0.062	inactive: -0.022	inactive: -0.006	inactive: 0.079	inactive: -0.002	inactive: 0.029	inactive: 0.072	inactive: 0	inactive: -0.029			
